Assay results as given in paper PMC9785994.
These are yes or no findings as the source states them, for the method shown. Binding seen in cells or lysates may run through a third protein. Some binding calls cover weakened binding; strength is not graded here.

The chains behind the UniProt entries cited, without tags or fusion partners.
UniProt P35222: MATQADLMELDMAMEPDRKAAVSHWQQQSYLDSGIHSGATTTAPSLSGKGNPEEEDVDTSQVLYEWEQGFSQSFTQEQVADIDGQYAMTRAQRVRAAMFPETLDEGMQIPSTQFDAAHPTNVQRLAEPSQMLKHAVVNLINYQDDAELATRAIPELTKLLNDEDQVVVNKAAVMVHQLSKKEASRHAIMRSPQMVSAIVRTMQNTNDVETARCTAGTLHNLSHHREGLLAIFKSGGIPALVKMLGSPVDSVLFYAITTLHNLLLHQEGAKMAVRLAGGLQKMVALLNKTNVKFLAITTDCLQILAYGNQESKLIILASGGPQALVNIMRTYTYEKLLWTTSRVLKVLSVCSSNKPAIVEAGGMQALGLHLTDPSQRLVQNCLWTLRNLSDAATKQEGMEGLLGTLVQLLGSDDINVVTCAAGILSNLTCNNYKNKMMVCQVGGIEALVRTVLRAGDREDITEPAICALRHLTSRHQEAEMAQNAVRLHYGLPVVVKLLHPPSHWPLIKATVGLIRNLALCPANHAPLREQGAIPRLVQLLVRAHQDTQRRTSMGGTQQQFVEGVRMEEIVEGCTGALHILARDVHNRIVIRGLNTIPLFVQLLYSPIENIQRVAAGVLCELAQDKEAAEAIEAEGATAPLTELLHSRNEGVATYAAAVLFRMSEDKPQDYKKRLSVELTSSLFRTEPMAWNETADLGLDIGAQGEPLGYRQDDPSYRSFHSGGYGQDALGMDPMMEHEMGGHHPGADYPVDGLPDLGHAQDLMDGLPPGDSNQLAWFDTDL
UniProt P23443: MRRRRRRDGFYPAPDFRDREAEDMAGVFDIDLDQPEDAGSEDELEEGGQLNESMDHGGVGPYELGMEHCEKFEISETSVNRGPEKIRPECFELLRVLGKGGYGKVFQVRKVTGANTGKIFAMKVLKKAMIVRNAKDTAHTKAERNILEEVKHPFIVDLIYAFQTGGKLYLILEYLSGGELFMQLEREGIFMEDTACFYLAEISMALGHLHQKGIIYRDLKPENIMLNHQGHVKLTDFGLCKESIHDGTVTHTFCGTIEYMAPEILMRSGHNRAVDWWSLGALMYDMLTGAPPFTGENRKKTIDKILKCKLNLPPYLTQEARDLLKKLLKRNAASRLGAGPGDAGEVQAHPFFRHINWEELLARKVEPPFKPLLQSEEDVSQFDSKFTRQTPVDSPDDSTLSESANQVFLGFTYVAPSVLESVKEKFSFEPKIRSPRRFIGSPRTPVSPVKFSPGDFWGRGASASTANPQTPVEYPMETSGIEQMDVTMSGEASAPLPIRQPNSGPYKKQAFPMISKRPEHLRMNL

Key:
[1] = biological target: Flag-β-catenin (human) (UniProt P35222); assay: co-IP; 293T cells transiently transfected with Flag-β-catenin and Myc-S6K1; immunoprecipitation with Flag antibody, immunoblot with anti-Flag and anti-Myc
[2] = biological target: recombinant GST-β-catenin (human) (UniProt P35222); assay: pull-down; in vitro GST pulldown: recombinant GST or recombinant GST-β-catenin with 293T cell extracts; eluted S6K1 detected with anti-S6K1; only the target purified
[3] = biological target: β-catenin, endogenous in DLD-1 cells (human (endogenous in DLD-1)) (UniProt P35222); assay: co-IP; endogenous proteins in DLD-1 cells; immunoprecipitation with S6K1 (a) or β-catenin (b) antibodies, partner detected by immunoblot
[4] = biological target: Ribosomal protein S6 kinase 1 (S6K1), endogenous in 293T cells (human (endogenous in HEK293T)) (UniProt P23443); assay: co-IP; cytoplasmic and nuclear extracts from 293T cells treated or untreated with LiCl (25 mM, 8 h); immunoprecipitation with S6K1 antibody
[5] = biological target: Flag-tagged wild-type S6K1 (S6K1-WT) (human) (UniProt P23443); assay: co-IP; 293T cells expressing Flag-tagged WT, CA and DN forms of S6K1, treated with LiCl (25 mM) for 8 h; immunoprecipitation with Flag antibody
[6] = biological target: Ribosomal protein S6 kinase 1 (S6K1), endogenous in DLD-1 cells (human (endogenous in DLD-1)) (UniProt P23443); assay: co-IP; endogenous proteins in DLD-1 cells; immunoprecipitation with S6K1 (a) or β-catenin (b) antibodies, partner detected by immunoblot

Substance: Myc-S6K1 (from UniProt P23443 1-525)
- binding [1]: binds

Substance: Ribosomal protein S6 kinase 1 (S6K1), endogenous in 293T cells (from UniProt P23443 1-525)
- binding [2]: binds

Substance: Ribosomal protein S6 kinase 1 (S6K1), endogenous in DLD-1 cells (from UniProt P23443 1-525)
- binding [3]: binds

Substance: β-catenin, endogenous in 293T cells (from UniProt P35222 1-781)
- binding [4]: binds
- binding [5]: binds

Substance: β-catenin, endogenous in DLD-1 cells (from UniProt P35222 1-781)
- binding [6]: binds
